Reference: PMC8143644

Sequences of proteins named here, by UniProt entry; tags and fusion partners are left off. A change or cut given only in a name is not applied to a line headed by its entry.
UniProt Q9W3M7: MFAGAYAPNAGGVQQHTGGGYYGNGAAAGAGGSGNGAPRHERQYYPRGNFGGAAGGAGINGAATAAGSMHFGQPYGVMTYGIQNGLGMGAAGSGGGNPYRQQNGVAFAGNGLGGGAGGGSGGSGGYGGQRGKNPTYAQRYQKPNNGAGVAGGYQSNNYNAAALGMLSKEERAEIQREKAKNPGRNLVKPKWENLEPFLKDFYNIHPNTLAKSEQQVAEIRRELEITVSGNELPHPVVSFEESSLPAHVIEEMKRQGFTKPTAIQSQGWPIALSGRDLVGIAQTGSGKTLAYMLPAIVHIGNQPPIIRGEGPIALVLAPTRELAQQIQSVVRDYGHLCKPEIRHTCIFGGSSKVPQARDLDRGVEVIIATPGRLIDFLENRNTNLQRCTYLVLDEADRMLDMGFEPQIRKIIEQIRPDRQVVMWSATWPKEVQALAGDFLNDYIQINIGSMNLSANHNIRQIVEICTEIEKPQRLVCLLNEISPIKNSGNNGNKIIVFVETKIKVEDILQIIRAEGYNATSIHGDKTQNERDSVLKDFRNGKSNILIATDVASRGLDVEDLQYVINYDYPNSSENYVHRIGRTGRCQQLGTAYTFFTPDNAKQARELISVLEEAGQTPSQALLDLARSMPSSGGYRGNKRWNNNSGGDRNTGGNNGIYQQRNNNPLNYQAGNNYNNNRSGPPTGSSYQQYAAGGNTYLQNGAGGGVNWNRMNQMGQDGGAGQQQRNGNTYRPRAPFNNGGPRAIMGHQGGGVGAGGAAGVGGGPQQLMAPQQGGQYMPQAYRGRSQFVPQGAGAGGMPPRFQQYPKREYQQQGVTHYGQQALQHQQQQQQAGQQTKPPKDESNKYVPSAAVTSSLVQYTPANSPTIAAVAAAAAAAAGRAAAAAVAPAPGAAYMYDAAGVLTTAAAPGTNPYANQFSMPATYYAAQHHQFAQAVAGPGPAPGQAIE
UniProt P55824: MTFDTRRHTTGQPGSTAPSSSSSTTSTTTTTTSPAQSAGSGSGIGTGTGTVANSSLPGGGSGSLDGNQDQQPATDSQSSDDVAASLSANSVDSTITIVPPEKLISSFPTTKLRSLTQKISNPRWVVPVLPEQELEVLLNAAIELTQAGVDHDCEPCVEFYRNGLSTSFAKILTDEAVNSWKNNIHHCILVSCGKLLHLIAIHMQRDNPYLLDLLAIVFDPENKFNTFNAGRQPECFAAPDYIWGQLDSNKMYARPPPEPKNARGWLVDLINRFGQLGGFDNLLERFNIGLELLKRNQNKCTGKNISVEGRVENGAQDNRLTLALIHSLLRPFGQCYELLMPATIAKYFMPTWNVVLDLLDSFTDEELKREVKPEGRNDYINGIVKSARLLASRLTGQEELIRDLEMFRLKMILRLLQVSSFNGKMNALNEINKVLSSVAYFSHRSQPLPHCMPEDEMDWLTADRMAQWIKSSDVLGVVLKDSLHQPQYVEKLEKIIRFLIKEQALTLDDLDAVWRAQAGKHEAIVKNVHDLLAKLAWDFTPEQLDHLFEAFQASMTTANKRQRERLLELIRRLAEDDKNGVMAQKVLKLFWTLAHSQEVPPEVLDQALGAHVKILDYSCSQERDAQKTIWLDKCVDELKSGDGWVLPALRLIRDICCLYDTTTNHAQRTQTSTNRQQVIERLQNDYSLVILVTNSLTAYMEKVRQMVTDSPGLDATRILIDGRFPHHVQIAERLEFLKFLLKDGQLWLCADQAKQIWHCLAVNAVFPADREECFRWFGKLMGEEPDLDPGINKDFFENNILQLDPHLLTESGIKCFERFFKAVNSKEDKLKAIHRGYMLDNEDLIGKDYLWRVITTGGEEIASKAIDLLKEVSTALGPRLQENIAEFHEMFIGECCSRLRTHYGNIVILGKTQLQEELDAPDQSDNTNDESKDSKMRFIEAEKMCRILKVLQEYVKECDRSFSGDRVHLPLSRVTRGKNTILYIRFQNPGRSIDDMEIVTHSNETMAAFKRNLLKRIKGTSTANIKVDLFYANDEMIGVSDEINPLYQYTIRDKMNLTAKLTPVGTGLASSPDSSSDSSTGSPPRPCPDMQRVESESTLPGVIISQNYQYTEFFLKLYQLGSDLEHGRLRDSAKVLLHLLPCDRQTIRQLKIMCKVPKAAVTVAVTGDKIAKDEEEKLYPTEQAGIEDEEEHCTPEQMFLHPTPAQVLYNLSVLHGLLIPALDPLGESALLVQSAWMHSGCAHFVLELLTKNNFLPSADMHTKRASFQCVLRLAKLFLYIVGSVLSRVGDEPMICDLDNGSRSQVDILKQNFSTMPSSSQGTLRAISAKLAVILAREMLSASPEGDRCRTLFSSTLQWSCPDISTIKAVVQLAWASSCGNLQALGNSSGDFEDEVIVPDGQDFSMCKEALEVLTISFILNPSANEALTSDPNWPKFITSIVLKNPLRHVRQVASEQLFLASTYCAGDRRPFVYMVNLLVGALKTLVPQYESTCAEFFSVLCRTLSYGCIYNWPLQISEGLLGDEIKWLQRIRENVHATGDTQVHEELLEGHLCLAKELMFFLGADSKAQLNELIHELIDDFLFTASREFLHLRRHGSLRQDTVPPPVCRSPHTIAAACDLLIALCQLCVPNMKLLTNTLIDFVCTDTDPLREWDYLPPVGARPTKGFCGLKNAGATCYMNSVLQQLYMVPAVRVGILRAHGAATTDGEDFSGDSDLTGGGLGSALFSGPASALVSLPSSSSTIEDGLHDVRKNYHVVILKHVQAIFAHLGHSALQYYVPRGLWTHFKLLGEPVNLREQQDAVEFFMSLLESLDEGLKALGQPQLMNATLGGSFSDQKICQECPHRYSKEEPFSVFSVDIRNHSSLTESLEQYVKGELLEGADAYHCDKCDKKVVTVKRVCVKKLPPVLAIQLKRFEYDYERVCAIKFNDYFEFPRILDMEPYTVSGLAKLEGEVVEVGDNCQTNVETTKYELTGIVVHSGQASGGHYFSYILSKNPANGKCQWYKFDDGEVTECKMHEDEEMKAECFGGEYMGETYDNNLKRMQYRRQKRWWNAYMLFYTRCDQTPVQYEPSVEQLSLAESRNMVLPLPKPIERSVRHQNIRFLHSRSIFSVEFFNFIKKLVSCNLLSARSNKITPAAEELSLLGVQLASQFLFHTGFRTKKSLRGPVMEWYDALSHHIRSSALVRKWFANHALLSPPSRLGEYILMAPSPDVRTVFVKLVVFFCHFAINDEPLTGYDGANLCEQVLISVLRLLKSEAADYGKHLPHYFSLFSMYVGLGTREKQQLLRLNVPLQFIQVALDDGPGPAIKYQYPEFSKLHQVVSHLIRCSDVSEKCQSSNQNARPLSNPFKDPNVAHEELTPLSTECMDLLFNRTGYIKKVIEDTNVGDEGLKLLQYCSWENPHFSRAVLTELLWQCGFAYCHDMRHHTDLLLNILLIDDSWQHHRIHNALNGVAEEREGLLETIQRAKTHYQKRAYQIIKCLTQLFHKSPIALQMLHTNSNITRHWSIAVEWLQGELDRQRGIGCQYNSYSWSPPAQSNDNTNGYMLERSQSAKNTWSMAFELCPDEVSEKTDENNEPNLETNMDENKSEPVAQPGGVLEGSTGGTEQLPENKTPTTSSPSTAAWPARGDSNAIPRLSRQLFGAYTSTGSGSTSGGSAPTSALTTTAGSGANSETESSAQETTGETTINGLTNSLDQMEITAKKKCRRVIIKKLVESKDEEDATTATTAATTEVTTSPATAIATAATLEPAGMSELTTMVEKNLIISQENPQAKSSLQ
UniProt Q9NFU0: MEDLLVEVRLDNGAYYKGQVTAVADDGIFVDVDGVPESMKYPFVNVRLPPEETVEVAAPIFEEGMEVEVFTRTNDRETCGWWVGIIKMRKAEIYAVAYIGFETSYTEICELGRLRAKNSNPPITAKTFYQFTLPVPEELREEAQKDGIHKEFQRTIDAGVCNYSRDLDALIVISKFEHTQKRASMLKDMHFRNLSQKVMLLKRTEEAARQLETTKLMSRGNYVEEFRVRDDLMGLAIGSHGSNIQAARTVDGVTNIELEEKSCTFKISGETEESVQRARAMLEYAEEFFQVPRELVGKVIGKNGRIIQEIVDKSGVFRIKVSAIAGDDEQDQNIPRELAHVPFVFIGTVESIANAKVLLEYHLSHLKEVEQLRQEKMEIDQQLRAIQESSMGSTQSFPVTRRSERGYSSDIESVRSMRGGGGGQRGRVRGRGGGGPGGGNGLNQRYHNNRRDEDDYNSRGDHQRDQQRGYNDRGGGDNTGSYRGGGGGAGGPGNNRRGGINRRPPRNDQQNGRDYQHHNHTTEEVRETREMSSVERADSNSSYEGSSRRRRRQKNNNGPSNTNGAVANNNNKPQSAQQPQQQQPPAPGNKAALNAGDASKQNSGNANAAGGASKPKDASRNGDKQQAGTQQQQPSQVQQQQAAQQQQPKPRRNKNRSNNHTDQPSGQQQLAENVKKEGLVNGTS
UniProt Q05856: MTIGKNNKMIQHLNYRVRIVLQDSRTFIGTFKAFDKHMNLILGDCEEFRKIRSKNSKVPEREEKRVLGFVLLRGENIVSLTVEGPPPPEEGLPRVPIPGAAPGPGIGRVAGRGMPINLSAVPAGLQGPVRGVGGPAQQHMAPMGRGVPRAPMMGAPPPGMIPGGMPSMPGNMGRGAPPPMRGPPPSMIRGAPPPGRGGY
UniProt A1ZB44: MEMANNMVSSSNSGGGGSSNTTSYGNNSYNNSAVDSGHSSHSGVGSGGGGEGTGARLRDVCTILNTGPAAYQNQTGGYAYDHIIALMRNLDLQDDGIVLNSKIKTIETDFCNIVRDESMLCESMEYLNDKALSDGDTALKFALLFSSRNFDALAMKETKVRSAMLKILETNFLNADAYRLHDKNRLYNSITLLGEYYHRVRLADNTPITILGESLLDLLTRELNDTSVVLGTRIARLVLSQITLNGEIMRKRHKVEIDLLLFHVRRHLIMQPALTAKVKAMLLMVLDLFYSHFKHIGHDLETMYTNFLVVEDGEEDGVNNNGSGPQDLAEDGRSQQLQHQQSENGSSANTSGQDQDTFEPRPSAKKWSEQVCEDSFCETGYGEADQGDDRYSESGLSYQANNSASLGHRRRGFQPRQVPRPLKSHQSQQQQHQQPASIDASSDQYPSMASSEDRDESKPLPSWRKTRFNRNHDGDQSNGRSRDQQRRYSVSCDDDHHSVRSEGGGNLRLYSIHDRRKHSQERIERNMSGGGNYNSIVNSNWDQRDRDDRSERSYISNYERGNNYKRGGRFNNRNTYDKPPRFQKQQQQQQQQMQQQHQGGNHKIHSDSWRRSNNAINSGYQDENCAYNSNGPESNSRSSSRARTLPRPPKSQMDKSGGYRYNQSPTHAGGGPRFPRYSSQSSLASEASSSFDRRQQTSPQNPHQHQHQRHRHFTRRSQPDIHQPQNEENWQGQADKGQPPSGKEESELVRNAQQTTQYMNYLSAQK
UniProt P21187: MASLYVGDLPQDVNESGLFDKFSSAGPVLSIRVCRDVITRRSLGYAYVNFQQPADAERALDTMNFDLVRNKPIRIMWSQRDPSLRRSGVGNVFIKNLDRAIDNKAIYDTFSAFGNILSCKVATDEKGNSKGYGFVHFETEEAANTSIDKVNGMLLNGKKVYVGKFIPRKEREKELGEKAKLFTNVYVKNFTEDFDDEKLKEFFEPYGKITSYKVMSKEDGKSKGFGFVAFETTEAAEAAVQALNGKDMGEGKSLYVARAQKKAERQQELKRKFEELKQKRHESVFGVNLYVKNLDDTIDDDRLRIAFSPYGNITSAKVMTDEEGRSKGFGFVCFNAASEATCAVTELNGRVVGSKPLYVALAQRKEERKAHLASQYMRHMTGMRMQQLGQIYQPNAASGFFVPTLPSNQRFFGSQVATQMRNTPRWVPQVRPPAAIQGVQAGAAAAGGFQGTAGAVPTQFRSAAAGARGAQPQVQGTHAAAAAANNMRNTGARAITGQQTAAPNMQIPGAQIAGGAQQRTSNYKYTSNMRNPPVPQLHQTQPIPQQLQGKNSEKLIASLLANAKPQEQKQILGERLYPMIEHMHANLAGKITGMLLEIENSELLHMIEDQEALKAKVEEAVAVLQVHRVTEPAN
UniProt Q02748: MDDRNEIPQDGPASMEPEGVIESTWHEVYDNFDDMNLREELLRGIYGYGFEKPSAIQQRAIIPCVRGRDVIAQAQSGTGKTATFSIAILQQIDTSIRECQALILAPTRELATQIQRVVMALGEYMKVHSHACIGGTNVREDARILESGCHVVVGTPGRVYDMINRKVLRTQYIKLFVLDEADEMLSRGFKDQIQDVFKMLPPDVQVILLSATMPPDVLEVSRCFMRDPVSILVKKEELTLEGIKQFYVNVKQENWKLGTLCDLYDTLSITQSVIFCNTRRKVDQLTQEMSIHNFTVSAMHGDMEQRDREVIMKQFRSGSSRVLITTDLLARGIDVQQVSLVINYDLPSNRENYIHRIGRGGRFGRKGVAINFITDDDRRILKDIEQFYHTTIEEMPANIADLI

What was measured:
Assay in all cases: affinity purification with mass spectrometry; whole ovaries of flies expressing GFP-tagged baits lysed in 50 mM Tris-HCl pH 7.5, 100 mM NaCl, 250 mM sucrose, 0.1% Nonidet P-40, 1 mM DTT; RNase A/T1 treated; GFP-TRAP MA beads, 1 h at 4 °C; tag alone as control; label-free LC-MS/MS (all six baits) and dimethyl labeling MS (Hrp48, Vas)
[1] = molecular target: T1, Hrp48-GFP (Drosophila melanogaster) (UniProt P48809)
T1 sequence: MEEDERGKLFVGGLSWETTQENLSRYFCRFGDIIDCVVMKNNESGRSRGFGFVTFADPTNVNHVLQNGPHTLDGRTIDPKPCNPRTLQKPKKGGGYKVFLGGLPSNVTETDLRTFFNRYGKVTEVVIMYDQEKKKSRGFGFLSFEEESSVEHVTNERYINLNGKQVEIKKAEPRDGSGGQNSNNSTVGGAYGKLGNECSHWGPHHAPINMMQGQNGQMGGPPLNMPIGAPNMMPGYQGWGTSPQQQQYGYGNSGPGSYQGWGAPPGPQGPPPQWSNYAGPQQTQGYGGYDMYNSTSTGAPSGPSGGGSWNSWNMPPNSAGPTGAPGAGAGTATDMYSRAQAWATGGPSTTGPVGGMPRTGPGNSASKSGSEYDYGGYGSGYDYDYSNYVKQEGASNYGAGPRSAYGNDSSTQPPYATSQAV

[2] = molecular target: T2, Glo-GFP (Drosophila melanogaster) (UniProt Q9VGH5)
T2 sequence: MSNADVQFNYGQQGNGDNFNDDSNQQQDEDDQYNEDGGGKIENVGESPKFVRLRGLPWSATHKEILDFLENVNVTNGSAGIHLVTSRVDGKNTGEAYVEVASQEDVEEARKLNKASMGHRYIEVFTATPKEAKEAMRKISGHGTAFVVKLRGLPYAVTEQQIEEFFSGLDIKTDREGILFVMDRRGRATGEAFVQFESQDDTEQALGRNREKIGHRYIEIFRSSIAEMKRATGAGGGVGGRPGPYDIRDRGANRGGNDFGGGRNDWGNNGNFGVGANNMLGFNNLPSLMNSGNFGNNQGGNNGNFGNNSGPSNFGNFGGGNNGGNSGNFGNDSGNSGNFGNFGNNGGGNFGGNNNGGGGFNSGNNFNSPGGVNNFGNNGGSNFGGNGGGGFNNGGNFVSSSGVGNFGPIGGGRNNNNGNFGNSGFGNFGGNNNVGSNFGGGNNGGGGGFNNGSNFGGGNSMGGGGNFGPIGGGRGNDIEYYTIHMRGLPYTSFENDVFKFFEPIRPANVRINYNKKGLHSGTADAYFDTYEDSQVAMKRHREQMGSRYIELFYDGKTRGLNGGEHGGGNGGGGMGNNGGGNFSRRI

[3] = molecular target: T3, Vas-GFP (Drosophila melanogaster) (UniProt P09052)
T3 sequence: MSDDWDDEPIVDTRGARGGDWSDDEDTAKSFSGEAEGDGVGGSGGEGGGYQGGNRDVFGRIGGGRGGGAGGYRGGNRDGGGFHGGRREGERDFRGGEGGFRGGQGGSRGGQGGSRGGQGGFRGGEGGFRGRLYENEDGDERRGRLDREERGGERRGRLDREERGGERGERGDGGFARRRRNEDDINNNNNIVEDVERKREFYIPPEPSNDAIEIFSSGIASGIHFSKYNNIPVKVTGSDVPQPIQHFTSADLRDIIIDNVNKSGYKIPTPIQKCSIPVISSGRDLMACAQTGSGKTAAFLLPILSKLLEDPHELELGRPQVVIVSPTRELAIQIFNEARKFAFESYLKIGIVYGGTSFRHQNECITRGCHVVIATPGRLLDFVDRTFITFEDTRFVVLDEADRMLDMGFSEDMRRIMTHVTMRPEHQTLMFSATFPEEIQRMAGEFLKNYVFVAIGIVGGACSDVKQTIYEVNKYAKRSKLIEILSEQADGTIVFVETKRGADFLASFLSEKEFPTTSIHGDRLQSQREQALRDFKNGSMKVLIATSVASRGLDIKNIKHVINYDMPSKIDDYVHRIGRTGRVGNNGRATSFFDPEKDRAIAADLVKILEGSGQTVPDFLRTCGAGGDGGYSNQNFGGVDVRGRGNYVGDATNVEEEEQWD

[4] = molecular target: T4, Stau-GFP (Drosophila melanogaster) (UniProt P25159)
T4 sequence: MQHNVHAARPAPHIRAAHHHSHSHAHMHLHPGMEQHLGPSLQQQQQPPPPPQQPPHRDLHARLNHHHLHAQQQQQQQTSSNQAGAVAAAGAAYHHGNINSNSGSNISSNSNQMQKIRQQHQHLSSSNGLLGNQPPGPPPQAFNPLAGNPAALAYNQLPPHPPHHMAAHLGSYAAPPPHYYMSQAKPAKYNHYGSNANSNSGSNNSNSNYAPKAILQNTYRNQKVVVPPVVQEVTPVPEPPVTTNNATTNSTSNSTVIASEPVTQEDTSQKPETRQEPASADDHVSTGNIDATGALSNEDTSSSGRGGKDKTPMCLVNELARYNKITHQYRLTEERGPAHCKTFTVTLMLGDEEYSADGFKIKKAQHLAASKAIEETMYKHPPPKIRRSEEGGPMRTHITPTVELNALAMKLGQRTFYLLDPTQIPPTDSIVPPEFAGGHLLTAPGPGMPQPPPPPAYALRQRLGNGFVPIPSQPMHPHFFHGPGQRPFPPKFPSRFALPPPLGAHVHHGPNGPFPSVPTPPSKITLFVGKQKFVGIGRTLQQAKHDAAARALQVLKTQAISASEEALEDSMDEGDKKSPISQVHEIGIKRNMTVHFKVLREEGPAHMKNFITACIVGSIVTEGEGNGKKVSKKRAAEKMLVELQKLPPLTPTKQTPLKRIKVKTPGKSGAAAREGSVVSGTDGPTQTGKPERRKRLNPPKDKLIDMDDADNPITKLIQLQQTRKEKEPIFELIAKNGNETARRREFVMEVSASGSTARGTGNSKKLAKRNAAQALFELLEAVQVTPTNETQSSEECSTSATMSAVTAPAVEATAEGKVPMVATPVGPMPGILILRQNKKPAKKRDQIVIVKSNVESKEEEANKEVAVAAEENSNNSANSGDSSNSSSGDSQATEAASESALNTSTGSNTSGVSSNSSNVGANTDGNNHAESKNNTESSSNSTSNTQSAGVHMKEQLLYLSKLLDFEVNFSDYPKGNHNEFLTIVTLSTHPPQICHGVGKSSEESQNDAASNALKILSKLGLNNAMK

**Q.** For “Mahe (Maheshvara) (endogenous) (from UniProt Q9W3M7)”, which binding [1] is on record?
**A.** binds

**Q.** And the binding [2]?
**A.** binds

**Q.** For eIF5B, which binding [3] is on record?
**A.** no binding

**Q.** Which binding [3] does the source give for Fat facets (from UniProt P55824 1-2778) here?
**A.** binds

**Q.** Which binding [3] does the source give for Kumo (Qin) here?
**A.** binds

**Q.** With Fmr1 (from UniProt Q9NFU0 1-684) as the substance, how does the binding [3] read?
**A.** binds

**Q.** Which results are given for SmB (from UniProt Q05856 1-199)?
**A.** binding [1]: binds; binding [3]: binds; binding [4]: binds weakly; binding [2]: binds

**Q.** Orb was tested. Which binding [1] did it give?
**A.** binds

**Q.** cap-binding complex of eIF4E-4G was tested. Which binding [3] did it give?
**A.** binds

**Q.** Which binding [1] does the source give for CG5726 protein (from UniProt A1ZB44) here?
**A.** binds

**Q.** And the binding [3]?
**A.** binds

**Q.** And the binding [2]?
**A.** binds

**Q.** Which binding [1] does the source give for eIF3d here?
**A.** binds

**Q.** For Dicer, which binding [4] is on record?
**A.** binds

**Q.** For PABP (from UniProt P21187 1-634), which binding [1] is on record?
**A.** binds

**Q.** Syncrip was tested. Which binding [1] did it give?
**A.** binds

**Q.** Which binding [3] does the source give for eIF4A (from UniProt Q02748 1-403) here?
**A.** no binding

**Q.** Tapas was tested. Which binding [3] did it give?
**A.** binds

**Q.** For CG10077 (endogenous), which binding [2] is on record?
**A.** binds

These are yes or no findings as the source states them, for the method shown. In cells and extracts the contact can be indirect. A yes stands for co-enrichment or nearness to the bait. Other partners may have been found. For some of these results: No binding means not detected with the bait. Tags and fused reporters may be left off the sequences shown.
